# Source: the supplement of paper PMC3334620
# The full ranking holds about 33,000 sequences; the median of “E-score (-0.5 to 0.5)” is about -0.016, and the highest 2% start at about 0.3. Some of the results follow.
# Molecular target: T1, Yer184c (UniProt P39961)
# T1 sequence: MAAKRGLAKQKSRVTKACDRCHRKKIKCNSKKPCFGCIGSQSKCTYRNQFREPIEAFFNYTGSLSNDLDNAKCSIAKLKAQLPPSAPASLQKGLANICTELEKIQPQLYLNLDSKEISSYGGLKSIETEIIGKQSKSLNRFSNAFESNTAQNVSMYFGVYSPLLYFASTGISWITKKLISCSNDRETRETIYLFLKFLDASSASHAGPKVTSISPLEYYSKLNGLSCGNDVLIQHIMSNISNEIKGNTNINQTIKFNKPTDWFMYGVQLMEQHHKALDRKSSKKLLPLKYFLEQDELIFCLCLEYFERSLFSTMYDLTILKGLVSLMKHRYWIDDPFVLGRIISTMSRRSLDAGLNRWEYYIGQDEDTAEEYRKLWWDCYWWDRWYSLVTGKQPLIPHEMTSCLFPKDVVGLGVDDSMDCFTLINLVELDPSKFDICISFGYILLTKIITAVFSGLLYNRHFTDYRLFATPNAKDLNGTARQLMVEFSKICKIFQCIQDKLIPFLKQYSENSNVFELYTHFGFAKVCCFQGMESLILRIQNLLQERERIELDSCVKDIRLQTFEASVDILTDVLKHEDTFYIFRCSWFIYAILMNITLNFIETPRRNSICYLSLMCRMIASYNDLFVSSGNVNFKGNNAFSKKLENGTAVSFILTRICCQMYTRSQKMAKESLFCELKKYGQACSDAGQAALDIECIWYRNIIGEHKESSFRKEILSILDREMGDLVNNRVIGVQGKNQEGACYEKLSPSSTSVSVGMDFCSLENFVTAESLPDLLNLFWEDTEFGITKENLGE
# Test: PBM E-score (8-mer binding enrichment) (E-score (-0.5 to 0.5)); higher = stronger / more preferred TF binding
# Details: protein concentration: 100 nM; construct: GST-full length
# Summary of the method: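 PURExpress in vitro transcription/translation supplied GST-tagged yeast transcription factors, either full-length or DNA-binding domain. Applied at about 100-200 nM to universal all-10-mer Agilent arrays double-stranded by primer extension, the bound protein was detected with fluorescent anti-GST. E-scores, modified Wilcoxon-Mann-Whitney statistics, were given by the Universal PBM Analysis Suite to ungapped eight-base words pooled with their reverse complements after masliner normalisation.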
row,Sequence,PBM E-score
1,CTTTTCAC,0.0979
2,CGAGCGGA,0.167
3,CAGTAATA,0.168
4,CAATGCAC,-0.0494
5,CCACAGTA,-0.1
6,ACGGGCAG,-0.0367
7,ATTTGTTA,0.16
8,GAGATTAA,0.0828
9,AGAGGCTC,-0.278
10,CATTAATG,0.0115
11,AGTTGATG,0.0893
12,CCTGGGTC,-0.0566
13,AAGTACAG,-0.182
14,AATCGTTC,0.0446
15,ATCTGAAG,-0.0528
16,AAATTGCT,0.0164
17,CGCAGCAA,-0.138
18,ACCCACAC,-0.0483
19,GGGCGCTA,-0.192
20,ATCCCAAG,0.00205
21,CGTCCAAG,-0.0418
22,ATCTTATC,0.0892
23,TGTCTAAA,0.0812
24,CATAGATG,-0.143
25,GGAGAGCA,-0.106

row,Sequence,PBM E-score
1,GAGGGCGC,-0.187
2,GACGCAGA,0.0207
3,GAGTTAAA,0.119
4,GGAAGGAC,-0.0211
5,ACAAGGCG,-0.0941
6,TCGCGCAA,0.148
7,TTAAATAA,0.163
8,CGTGGAGC,-0.025
9,CAGGAATG,-0.124
10,ATCCGTAA,0.149
11,CGCGCCTA,0.0946
12,GAGCAGAA,0.0139
13,TGAGTAAA,-0.169
14,ACTTGGAT,-0.031
15,GGATAGGA,-0.0966
16,AACTCGGG,0.107
17,AGATGTCG,-0.00904
18,ACCCGCGA,-0.0511
19,GGCAACCC,-0.0421
20,CATGGTCG,-0.0756
21,AGGCGGCA,-0.0565
22,CCTAAGAC,-0.303
23,CAACACTA,0.0674
24,AACACATT,0.0963
25,AGTTGTCG,0.0405

row,Sequence,PBM E-score
1,GAAATGGA,-0.212
2,ACTATGCT,0.103
3,AATATAGT,0.167
4,ATAATTGG,0.0686
5,ATATGAAA,0.213
6,TATCAGAA,0.216
7,TCCGACCA,0.145
8,CTGCAGTC,-0.217
9,ATAACCGG,0.154
10,AGACTATG,-0.196
11,ATGAGTTC,0.0584
12,GTATTATA,0.263
13,AAAAAAAT,0.164
14,TGGTAACA,-0.029
15,GAAAACGA,0.0502
16,CTCAGAGC,-0.251
17,AAATTACC,0.00841
18,AGAGTAGC,-0.166
19,GAGAAAAC,0.046
20,CCGTCTGA,-0.0122
21,CCGTTTGA,0.0488
22,ACTTAAGA,0.155
23,GTGCGGCA,0.119
24,ACAATAGC,-0.0638
25,TCAGGAGA,0.0784

# Reformatted tab-delimited: part of the list above.
row	Sequence	PBM E-score
10	AGACTATG	-0.196
11	ATGAGTTC	0.0584

# The list continues.

row,Sequence,PBM E-score
1,CCGTAACG,-0.0339
2,GAGGTAAA,0.148
3,GAGGGAAC,-0.0368
4,ACGGTATA,0.0673
5,GGAGAGCC,-0.292
6,AACGTGTC,-0.125
7,CCGCTCAC,-0.124
8,ATCCTGCC,-0.283
9,ACGTTGGG,-0.177
10,GCTTACAC,-0.0906
11,GGAACAAC,0.243
12,ATAGACGA,0.00012
13,CCATGAAG,0.111
14,GCGCGCCC,-0.161
15,GCGCACTA,-0.0674
16,AAGTGAAA,0.122
17,CTACAACA,-0.0277
18,ACTATTGC,0.0958
19,AGGATGTC,-0.0865
20,GAAACATA,0.13
21,CGATGACA,0.0958
22,CTGGCGGA,-0.254
23,CTAGCCCA,-0.218
24,CGCTCACA,-0.124
25,AGGACCTG,-0.174

# Copied from the list.
# For PBM E-score, GAGGGAAC is entered as -0.0368
# For PBM E-score, GGAGAGCC is entered as -0.292
# For PBM E-score, AGGATGTC is entered as -0.0865

# Further entries:

row,Sequence,PBM E-score
1,AGTTCAGA,0.102
2,ATCAGCTA,-0.0273
3,CCTATAGG,-0.175
4,CTTGCTGA,-0.125
5,CACCGCCC,-0.13
6,CGCGAGTC,-0.07
7,CGAGTGTA,-0.0537
8,ACACGGAT,0.272
9,CTAGGACA,0.0564
10,ACAATACT,0.117
11,AAGCTTCA,0.0388
12,CTTAATCA,0.201
13,AACGTTGC,-0.0255
14,AGCAGCGA,0.00724
15,ACGACATA,-0.196
16,GCAAACCC,-0.122
17,GTAAGGGA,-0.114
18,AAACGGGT,0.032
19,AAAATTCC,0.239
20,ACTTGCCT,-0.151
21,CACGAAGC,-0.11
22,GATGCGAC,-0.114
23,GTTTCCCA,0.0693
24,CGCGGCAC,0.267
25,CCGAGGAC,0.0882

# Quoted at random: five entries already listed
row,Sequence,PBM E-score
12,CTTAATCA,0.201
21,CACGAAGC,-0.11
25,CCGAGGAC,0.0882
4,CTTGCTGA,-0.125
17,GTAAGGGA,-0.114

# (listing goes on)

row,Sequence,PBM E-score
1,GAAACGTA,0.0378
2,GTGGCGAA,0.104
3,GAACAGCA,0.123
4,ACAGTCGT,-0.189
5,ATGACAAC,0.233
6,AAGCGACT,-0.00129
7,GCTCAACA,-0.0131
8,TGCATAAA,0.23
9,GGTTGTCA,-0.0206
10,AGGACCTC,-0.106
11,AAGACTCT,0.0451
12,GCATTTGA,0.0784
13,AGTTCCGA,0.313
14,ACTTCGTC,0.0888
15,ACGGGGTA,-0.151
16,CCGACTTC,-0.243
17,ATATGACA,0.062
18,CTACCACA,-0.16
19,ATGTTGGG,-0.306
20,CATGGCGA,-0.0913
21,CCGCCTGC,0.0616
22,CCACTCAA,-0.00608
23,GGGGGAGA,-0.284
24,ATTCGACA,-0.0581
25,AGCCGCGG,0.419

row,Sequence,PBM E-score
1,AGGACGGC,-0.0658
2,GCTAGGCA,-0.12
3,ACACCTTC,0.0962
4,AGGAAGGA,-0.247
5,TACAGCAA,0.0296
6,AACCCTTA,-0.0377
7,CGGGTTCC,0.246
8,AACTGAAC,0.0915
9,CCAGCTGA,-0.0242
10,CATAAAAC,-0.0501
11,CTACGCAG,-0.0366
12,CGTCTGGC,0.0178
13,ATCGCAGC,-0.0331
14,GCTGTAAA,0.0629
15,ATACACAA,0.139
16,AAACGGGG,0.0448
17,CCGGCAGC,0.254
18,AGGCTCCG,0.246
19,GAATTTAA,0.169
20,GTCGCCAA,-0.0646
21,TCACAACA,0.126
22,AGTGGCTC,-0.21
